Patent publication US9730679B1, “Device for sterile uterine sampling and drug delivery” (University of South Florida, priority 2012, dated 2017)
At least one compound was matched to its structure with a doubt left.

Tested on: Escherichia coli (ATCC 25922)
Assay: Minimum inhibitory concentration, visual turbidimetric method with OD600 of MIC tubes
Type: cell-based
Settings: same concentrations as the DCNP drug concentrations, four hours
Experimental: To determine the antibacterial activity of the doxycycline-loaded chitosan nanoparticles, minimum inhibitory concentrations (MICs) and minimum bactericidal concentrations (MBCs) were evaluated. The procedures for both assays were adopted from Lee et al. (Blanchet […]. Forward Selection of Explanatory Variables. Ecology. 2008; 89:2623-2632). MIC is the lowest concentration of DCNPs that inhibits bacterial growth. For the analyses, a visual turbidimetric method was used. Freshly prepared nanoparticles, blank and drug-loaded, were UV-sterilized for ten minutes. […] A 500 μL aliquot of this solution with sterilized particles was added to a tube containing Luria-Bertani (LB) broth for a total volume of 2 mL. A serial dilution, with a dilution factor of 0.3, was performed for the remaining six tubes. A parallel series of experiments was also run using unencapsulated doxycycline. Under sterile conditions, the tubes containing particles were inoculated with 1.0×10^5 colony-forming units (CFUs)/mL of Escherichia coli cells in LB broth, then incubated at 37° C. under agitation for four hours. Following the incubation, the tubes were assessed visually for the appearance of turbidity (i.e., bacterial growth). […] All MIC tubes were analyzed to assess the amount of bacteria present by measuring optical density of the suspension at 600 nm (OD600) and then calculating the number of bacterial cells present.

C[C@H]1c2cccc(O)c2C(=O)C2=C(O)[C@]3(O)C(=O)C(C(N)=O)=C(O)[C@@H](N(C)C)[C@@H]3[C@@H](O)[C@@H]21 [Doxy, Doxycycline]
antibacterial effect on E. coli (in words): near-elimination of E. coli
